In PMC4729832:
No constants are given. Whether binding was seen depends on the method and setting. Binding seen in cells or lysates may run through a third protein. Some entries that bind do so weakly or less than the wild type.

Target: T-cell intracellular antigen-1 (TIA1) (UniProt P31483)
Test: co-IP; Flag-TIA1 and GFP-TIA1 expressed in cells, with or without H2O2 treatment; lysates in lysis buffer (20 mM Tris-HCl pH 7.5, 1% Triton X-100, 0.5% deoxycholate, 137 mM NaCl), precleared, antibody 4 h at 4 °C, protein G-Sepharose, five washes

binding: binds
B1: T-cell intracellular antigen-1 (TIA1) (protein, UniProt P31483 1-386)
chain: MEDEMPKTLYVGNLSRDVTEALILQLFSQIGPCKNCKMIMDTAGNDPYCFVEFHEHRHAAAALAAMNGRKIMGKEVKVNWATTPSSQKKDTSSSTVVSTQRSQDHFHVFVGDLSPEITTEDIKAAFAPFGRISDARVVKDMATGKSKGYGFVSFFNKWDAENAIQQMGGQWLGGRQIRTNWATRKPPAPKSTYESNTKQLSYDEVVNQSSPSNCTVYCGGVTSGLTEQLMRQTFSPFGQIMEIRVFPDKGYSFVRFNSHESAAHAIVSVNGTTIEGHVVKCYWGKETLDMINPVQQQNQIGYPQPYGQWGQWYGNAQQIGQYMPNGWQVPAYGMYGQAWNQQGFNQTQSSAPWMGPNYGVQPPQGQNGSMLPNQPSGYRVAGYETQ
